Results: paper PMC10163288
The list shows a part of the results.

B1: il2ra_site2_2erj_normal_mot_HHH_b2_01275_af2_000000073_0001_23_39_H_._HHH_b1_03567_af2_0001_0000300025_0000001_0 (protein)
chain: SSSSNREELKRLYELAVRLLHLLFRGDEEKVEEVLEELKELAEKLQSDTAREVVERVQEKLSSSS
B2: il2ra_site1_3nfp_normal_mot_HHH_b2_00128_000000255_0001_39_54_H_._acfcd8feda8a25c16a341ca1bc1bbb0a_0001_1_af2_0001_0000100002_0000001_0 (protein)
chain: NEAAELLHELVREYRDDPEVREILEEIMHLIARGNPEEAVKLLEELAKRLNDPEIEEIAKLVEEA
B3: il2ra_site2_2erj_normal_mot_HHH_b2_05198_af2_000000162_0001_40_52_H_._HHH_b1_05937_0001_0000100004_0000001_0 (protein)
chain: SSSSSDEEEEEIEELLERMKRIKDEEEFEKLVSEASVLIFRANNFELFDELARIFREFASSSSSS
B4: il2ra_site1_3nfp_normal_mot_HHH_b1_07861_af2_000000213_0001_22_38_H_._270c228088714b382bf5ac4c94627418_0001_0001_0000200006_0000001_0_af2pred_0001_af2pred (protein)
chain: SARELARLAKELGNEELLRLIFEALAIAIRKRDPELEKRLLELAEEALKKNDPELAEEIERLAEK
B5: il2ra_site2_3nfp_normal_mot_HHH_b1_00660_af2_000000090_0001_40_57_H_._HHH_b2_05982_0001_0000600017_0000001_0 (protein)
chain: SSSSSEREEKVEELLERAREYYENGNPEAVERLLAEALHIAYEYNDFELFALIQEFRSKLTSSSS
B6: il2ra_site2_3nfp_normal_mot_HHH_b2_00746_000000285_0001_20_36_H_._HHH_b1_07135_0001_0000400031_0000001_0 (protein)
chain: SSSSDVEERVRELLEKAREALEEGDPHEAFAILNDAAFLALRNGDEELLREVQEVAREIAESSSS
B7: il2ra_site1_3nfp_sap_9_mot_HHH_b1_00258_000000025_0001_42_56_H_._HHH_b1_03356_af2_0001_0000300034_0000001_0_0001 (protein)
chain: SSSSTAAEWLEELVEKLYEEGDADQVRAILRLLERAAEQLNNPLAREVAEEVEKLLRKLEGSSSS
B8: il2ra_site2_3nfp_sap_35_mot_HHH_b1_04787_000000220_0001_23_40_H_._HHH_b1_05252_af2_0001_0000700035_0000001_0_0001 (protein)
chain: SSSSDKAEKYLEIAIRLARRALEEGDPEVAKRILELARLMAESNGNEELLEEIRELLEELSSSSS
B9: il2ra_site1_2b5i_normal_mot_HHH_b2_04910_000000118_0001_1_19_H_._HHH_b2_03045_0001_0001100040_0000001_0_af2pred_0001_af2pred_1 (protein)
chain: SSSSSSEELRELLEEANELFQNGNPEEARQVLEEARELAEELNSRALRRMVESALRELGSSSSSS
B10: il2ra_site2_3nfp_sap_18_mot_HHH_b2_05132_000000098_0001_38_52_H_._461c5b8021308318a9a61a4e77c13547_0001_af2_0001_0000900009_0000001_0_0001 (protein)
chain: SSSSSDESHEYLRAVLLLAEEASEEDPELARKLAELLERAIKDAGDEELQELVEELLERLSSSSS
B11: il2ra_site2_3nfp_sap_23_mot_HHH_b1_00050_000000292_0001_22_38_H_._HHH_b1_02222_af2_0001_0000800021_0000001_1_0001_af2pred_0001_af2pred (protein)
chain: SSSSSSSEEEEEVRELLEEAKQIEDPFEAFAVLADAAFLALELGDEELARRILKLASRLSSSSSS
B12: il2ra_site1_1z92_sap_15_mot_HHH_b2_00494_000000030_0001_41_54_H_._HHH_b2_01953_0001_0000500033_0000001_0_0001 (protein)
chain: DEEELLEEAEELAPNPSVRWVVRLFESALRTGNERRLRFLLQHLKDLASRDPRVREVLRLLEEVH
B13: il2ra_site1_3nfp_normal_mot_HHH_b2_01680_af2_000000278_0001_1_15_H_._HHH_b2_01154_af2_0001_0000400017_0000001_0_af2pred_0001_af2pred_swapped (protein)
chain: SSSSSELQRLFREIRELAKRGDPEEALKLAEEALKLAEELNNEAARRKLELAIRLIRRLNSSSSS
B14: il2ra_site1_2b5i_sap_6_mot_HHH_b1_05282_000000062_0001_1_18_H_._e7eb5d6140ef2dd7c28d54bc65c38495_0001_1_0001_0000400028_0000001_0_0001_af2pred_dldesign_0_af2pre … (protein)
chain: SSSSDPFELAERAFNEASRLFRAGKKEEAKKVLEDAIKELKKLGAEKLVAELEKFLKLVLGSSSS
B15: il2ra_site2_3nfp_normal_mot_HHH_b1_04762_000000120_0001_42_54_H_._HHH_b2_02003_0001_0000800040_0000001_0 (protein)
chain: SSSSDAEEYIRAALLLAERAARRNDPAAERHLKLIRLAIESKGDEEAEELLEEIERLLRELSSSS
B16: il2ra_site2_3nfp_normal_mot_HHH_b1_00660_af2_000000090_0001_40_57_H_._HHH_b2_03956_0001_0000500028_0000001_0_af2pred_0001_af2pred (protein)
chain: SSSSDEEEEQVERLLEEAKRLYENGNPEEAEKVLRRAADIAWELGNFELFAEILLLLEEIESSSS
B17: il2ra_site2_2erj_sap_23_mot_HHH_b1_06697_000000025_0001_41_54_H_._HHH_b2_03690_0001_0000400021_0000001_0_0001 (protein)
chain: SSSSDYEERVKELLEELRELLEEGDEEKFEELVFEVSQLIFENNDFELFAELTEIFEEFIRSSSS
B18: il2ra_site1_1z92_normal_mot_1581cc1c700002558836ca695aafbf97_0001_1_af2_000000099_0001_17_32_H_._HHH_b1_03943_0001_0000100005_0000001_0_af2pred_0001_af2pred (protein)
chain: SSSSSSSELEELVEELVREFGLSKKLEESLRRLLRSAQEAGISEEEIEKELRAFAEIAHSSSSSS

target: il2ra, P01589; assay: yeast display titration

Binder	apparent Kd
B1	inactive: no binding seen
B2	inactive: no binding seen
B3	inactive: no binding seen
B4	inactive: no binding seen
B5	inactive: no binding seen
B6	inactive: no binding seen
B7	inactive: no binding seen
B8	inactive: no binding seen
B9	inactive: no binding seen
B10	inactive: no binding seen
B11	inactive: no binding seen
B12	inactive: no binding seen
B13	inactive: no binding seen
B14	inactive: no binding seen
B15	inactive: no binding seen
B16	inactive: no binding seen
B17	inactive: no binding seen
B18	inactive: no binding seen

2 entries from above, as a markdown table:

| Binder | apparent Kd |
| --- | --- |
| B11 | inactive: no binding seen |
| B12 | inactive: no binding seen |
